Among the data in article PMC5683655 are binding values, retold here.

No constants are given. Whether binding was seen depends on the method and setting. Binding seen in cells or lysates may run through a third protein. Some binding calls cover weakened binding; strength is not graded here.

Assay [1] addresses T1, LIN-37 (C. elegans (endogenous in late embryos)) (UniProt Q23482).
T1 sequence: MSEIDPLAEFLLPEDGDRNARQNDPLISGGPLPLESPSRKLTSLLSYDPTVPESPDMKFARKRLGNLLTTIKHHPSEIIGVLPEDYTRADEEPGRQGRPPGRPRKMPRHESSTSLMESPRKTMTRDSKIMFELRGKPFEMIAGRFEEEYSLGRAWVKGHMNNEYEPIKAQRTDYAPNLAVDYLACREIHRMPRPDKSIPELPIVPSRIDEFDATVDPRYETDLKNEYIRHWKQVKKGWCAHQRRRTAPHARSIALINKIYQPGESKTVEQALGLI
Put plainly: co-IP; lin-35(n745) null (LIN-35 protein null) late embryo extracts; anti-EFL-1 or anti-LIN-37 antibody crosslinked to Protein A Dynabeads; 5 mg lysate, 2 hours at 4°C; lysis buffer 25 mM HEPES pH 7.6, 150 mM NaCl, 0.1% Nonidet P-40; western blot. Background: Immunoblotting shows a protein as a band on a membrane.

The target of assay [2] is T1, LIN-37 (C. elegans (endogenous in late embryos)). Put plainly: co-IP; wild-type (N2) late embryo extracts; anti-EFL-1 or anti-LIN-37 antibody crosslinked to Protein A Dynabeads; 5 mg lysate, 2 hours at 4°C; lysis buffer 25 mM HEPES pH 7.6, 150 mM NaCl, 0.1% Nonidet P-40; western blot.

B1: LIN-54 (protein, UniProt Q95QD7 1-435)
chain: MNQGEIVYQDDDDYYDESEIYDNYEEGAEFIEVNGQLVPHNPNLQAQQNRPGTSSMIQQHNRSMEVNQGLVKDEPIDTSSHRVYVPPPRPVQRKLFQPGPSTPGSSQYTVRNLSNLSGSPSMYDRQPASLPRTVQPMGLEMGNSEQRKVYIDMKDHVSHIRLKTKKKVFAPGQRKPCNCTKSQCLKLYCDCFANGEFCRDCNCKDCHNNIEYDSQRSKAIRQSLERNPNAFKPKIGIARGGITDIERLHQKGCHCKKSGCLKNYCECYEAKVPCTDRCKCKGCQNTETYRMTRYKNSGGAVSNTNALMSLTNASSTATPDSGPGSVVTDEHGDDYEDMLLSHKPKVEMDPRRFPWYYMTDEVVEAATMCMVAQAEEALNYEKVQTEDEKLINMEKLVLREFGRCLEQMITNTTELTQDLDAAPTDDIPGPSTSTS
On to B1, for which the binding result in assay [1] and in assay [2] was “binds” throughout.
